Measurements published in publication PMC5963871.

The chains behind the UniProt entries cited, without tags or fusion partners.
UniProt Q9VW15: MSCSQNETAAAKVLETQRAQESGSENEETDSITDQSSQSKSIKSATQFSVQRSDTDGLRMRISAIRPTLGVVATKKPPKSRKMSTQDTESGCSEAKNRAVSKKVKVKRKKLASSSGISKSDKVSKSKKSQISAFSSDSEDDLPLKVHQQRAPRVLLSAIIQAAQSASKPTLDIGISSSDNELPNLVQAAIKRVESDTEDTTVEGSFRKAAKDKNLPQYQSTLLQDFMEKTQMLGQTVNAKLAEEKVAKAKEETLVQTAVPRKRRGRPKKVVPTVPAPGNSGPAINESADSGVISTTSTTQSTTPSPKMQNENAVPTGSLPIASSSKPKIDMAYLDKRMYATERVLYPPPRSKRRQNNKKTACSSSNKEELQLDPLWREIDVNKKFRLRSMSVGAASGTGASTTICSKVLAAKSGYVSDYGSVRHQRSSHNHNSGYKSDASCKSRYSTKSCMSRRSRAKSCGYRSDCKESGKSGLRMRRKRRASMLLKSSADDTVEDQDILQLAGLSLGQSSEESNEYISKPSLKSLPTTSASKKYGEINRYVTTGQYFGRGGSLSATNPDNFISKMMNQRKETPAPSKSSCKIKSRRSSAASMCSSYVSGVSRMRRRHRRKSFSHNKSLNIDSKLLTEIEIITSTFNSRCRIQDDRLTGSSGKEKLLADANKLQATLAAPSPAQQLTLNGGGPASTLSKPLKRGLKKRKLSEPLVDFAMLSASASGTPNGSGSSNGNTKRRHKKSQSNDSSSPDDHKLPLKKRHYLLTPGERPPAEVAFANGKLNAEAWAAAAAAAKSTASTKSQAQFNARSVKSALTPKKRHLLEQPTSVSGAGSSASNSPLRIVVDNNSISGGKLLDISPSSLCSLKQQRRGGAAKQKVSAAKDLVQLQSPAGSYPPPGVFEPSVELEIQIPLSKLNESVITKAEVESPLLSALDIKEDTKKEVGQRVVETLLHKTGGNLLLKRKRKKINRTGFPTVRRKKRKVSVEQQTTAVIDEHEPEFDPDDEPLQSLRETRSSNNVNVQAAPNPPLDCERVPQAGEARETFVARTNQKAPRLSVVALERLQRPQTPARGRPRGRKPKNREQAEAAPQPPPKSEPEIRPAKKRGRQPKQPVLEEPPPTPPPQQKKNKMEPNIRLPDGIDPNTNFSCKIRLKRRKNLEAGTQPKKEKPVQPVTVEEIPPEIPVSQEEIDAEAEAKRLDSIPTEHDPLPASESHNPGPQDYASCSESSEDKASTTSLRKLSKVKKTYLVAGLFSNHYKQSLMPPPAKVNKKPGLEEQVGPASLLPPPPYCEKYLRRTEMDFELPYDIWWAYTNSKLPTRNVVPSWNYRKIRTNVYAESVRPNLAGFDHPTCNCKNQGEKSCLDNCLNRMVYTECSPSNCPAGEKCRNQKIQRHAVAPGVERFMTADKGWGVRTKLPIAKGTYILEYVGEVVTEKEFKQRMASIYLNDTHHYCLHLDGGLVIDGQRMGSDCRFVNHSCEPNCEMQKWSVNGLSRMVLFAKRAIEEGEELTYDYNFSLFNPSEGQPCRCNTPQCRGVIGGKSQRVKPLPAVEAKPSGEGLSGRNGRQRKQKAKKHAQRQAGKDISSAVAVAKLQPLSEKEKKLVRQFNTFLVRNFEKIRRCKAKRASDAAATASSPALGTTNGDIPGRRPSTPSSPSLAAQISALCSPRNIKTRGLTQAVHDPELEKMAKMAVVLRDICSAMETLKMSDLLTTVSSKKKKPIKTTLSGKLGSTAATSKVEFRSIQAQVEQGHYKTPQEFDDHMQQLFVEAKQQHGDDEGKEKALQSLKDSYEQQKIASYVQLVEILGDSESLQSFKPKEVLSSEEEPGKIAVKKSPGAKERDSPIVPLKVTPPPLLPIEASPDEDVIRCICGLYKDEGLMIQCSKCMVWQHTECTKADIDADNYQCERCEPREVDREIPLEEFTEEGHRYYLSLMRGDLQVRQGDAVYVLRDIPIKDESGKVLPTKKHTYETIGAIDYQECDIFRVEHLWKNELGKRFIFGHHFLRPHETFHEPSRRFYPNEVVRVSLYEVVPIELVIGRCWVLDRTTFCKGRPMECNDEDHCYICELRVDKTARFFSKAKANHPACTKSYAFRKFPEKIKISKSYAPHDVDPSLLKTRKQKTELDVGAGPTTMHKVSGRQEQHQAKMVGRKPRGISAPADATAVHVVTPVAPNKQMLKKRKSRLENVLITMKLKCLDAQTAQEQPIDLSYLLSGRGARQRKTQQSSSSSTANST

Columns and labels:
Ash1-CTAP (Drosophila) = Ash1-CTAP (Drosophila) (UniProt Q9VW15); assay: affinity purification with mass spectrometry; tandem affinity purification (TAP) of NTAP-Ash1 or Ash1-CTAP from Drosophila embryonic nuclear extracts; eluates from calmodulin beads separated on 4-12% gels; iBAQ quantification against mock TAP from wild type
NTAP-Ash1 (Drosophila) = NTAP-Ash1 (Drosophila) (UniProt Q9VW15); assay: as above

B1: MRG15 (endogenous, Drosophila embryos) (protein, UniProt Q9Y0I1 1-424)
chain: MGEVKPAKVENYSTGTDANTLFVDGERVLCFHGPLIYEAKVLKTKPDATPVEYYIHYAGWSKNWDEWVPENRVLKYNDDNVKRRQELARQCGERSKKDNKKGSAKAKKMEQMRNESRASTPSKDSNTSQSTASSTPTTSAGPGSKSEAGSTGTTTTNSTANSTTSRAHRKSTQSTPSTARPGTPSDKKEDPAAAETTEEEGPVAPKKKRMSEQRPSLTGSDVAEKPLPPTTTPSTPTTEPAPCVESEEAYAAKVEVKIKIPDELKHYLTDDWYAVVREHKLLELPAKVTVQQISEQYLAHKKSVKSTSASKEVAINDVLDGIVEYFNVMLGSQLLYKFERTQYADVMQKHPDTPLSELYGSFHLLRLFVRLGSMLSYSALDQQSMQNLLTHVQDFLKFLVKNSSIFFSMSNFINVDPEYVRNAQ
Ash1-CTAP (Drosophila)
  binding: binds
NTAP-Ash1 (Drosophila)
  binding: binds

Results are given in words; binding and its absence hold for the method and conditions named. Binding seen in cells or lysates may run through a third protein. A yes stands for co-enrichment or nearness to the bait. Other partners may have been found.
